Source: the supplement of paper PMC10849652
Some of the results follow.

By UniProt entry, the sequences of proteins in these tests, tags left out. Where a name states a change or a piece, a line headed by the entry shows the natural chain unless it says otherwise.
UniProt Q9P2E9: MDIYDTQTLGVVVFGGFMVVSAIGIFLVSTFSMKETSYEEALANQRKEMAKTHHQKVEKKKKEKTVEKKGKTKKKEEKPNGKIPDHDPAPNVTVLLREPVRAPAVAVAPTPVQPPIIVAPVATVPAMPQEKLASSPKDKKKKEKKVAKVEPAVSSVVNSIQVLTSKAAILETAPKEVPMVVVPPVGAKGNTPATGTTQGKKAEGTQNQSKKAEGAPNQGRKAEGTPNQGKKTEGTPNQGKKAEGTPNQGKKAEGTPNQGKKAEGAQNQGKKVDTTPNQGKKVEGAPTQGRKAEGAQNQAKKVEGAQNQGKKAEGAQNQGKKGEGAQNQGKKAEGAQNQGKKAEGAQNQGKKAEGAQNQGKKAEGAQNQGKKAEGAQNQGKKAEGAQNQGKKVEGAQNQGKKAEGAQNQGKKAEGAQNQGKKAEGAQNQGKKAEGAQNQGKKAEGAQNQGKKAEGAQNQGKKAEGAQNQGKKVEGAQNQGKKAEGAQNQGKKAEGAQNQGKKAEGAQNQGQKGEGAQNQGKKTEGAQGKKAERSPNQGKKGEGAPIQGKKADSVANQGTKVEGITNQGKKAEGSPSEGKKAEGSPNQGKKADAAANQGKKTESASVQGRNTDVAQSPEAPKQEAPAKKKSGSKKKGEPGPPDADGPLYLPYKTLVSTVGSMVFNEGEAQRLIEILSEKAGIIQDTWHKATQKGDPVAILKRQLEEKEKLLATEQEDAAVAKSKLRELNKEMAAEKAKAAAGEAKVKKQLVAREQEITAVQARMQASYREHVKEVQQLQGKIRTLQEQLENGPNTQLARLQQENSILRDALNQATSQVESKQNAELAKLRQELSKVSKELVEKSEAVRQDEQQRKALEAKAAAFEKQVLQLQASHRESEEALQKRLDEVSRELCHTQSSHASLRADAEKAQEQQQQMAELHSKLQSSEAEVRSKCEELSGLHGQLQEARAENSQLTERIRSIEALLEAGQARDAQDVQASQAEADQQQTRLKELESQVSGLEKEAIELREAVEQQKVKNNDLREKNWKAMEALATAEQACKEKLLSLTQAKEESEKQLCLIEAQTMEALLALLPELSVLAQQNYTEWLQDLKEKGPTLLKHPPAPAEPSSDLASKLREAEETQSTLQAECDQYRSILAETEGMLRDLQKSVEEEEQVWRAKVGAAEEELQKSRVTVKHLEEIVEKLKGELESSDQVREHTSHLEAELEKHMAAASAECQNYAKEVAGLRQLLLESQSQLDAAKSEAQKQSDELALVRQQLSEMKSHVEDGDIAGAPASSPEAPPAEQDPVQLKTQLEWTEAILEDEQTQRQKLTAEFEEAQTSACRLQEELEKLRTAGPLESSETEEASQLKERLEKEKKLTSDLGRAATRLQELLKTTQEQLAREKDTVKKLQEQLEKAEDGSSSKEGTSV
UniProt A6ZKI3: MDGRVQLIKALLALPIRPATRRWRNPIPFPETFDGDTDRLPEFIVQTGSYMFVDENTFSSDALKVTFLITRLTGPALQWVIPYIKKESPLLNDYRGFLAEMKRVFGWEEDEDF
UniProt Q9BZR6: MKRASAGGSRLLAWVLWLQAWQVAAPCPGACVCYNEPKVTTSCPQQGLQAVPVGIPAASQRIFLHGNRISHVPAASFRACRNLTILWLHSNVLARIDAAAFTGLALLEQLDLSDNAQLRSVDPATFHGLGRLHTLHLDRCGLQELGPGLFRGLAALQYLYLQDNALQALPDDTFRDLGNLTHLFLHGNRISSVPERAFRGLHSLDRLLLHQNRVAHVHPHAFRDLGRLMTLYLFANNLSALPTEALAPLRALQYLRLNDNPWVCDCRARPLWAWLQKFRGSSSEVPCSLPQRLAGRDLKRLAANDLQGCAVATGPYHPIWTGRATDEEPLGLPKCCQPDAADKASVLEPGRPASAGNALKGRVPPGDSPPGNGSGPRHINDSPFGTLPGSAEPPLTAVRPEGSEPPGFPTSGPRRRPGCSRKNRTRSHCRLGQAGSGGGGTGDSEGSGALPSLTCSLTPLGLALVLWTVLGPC
UniProt O75582, whole entry, looked up: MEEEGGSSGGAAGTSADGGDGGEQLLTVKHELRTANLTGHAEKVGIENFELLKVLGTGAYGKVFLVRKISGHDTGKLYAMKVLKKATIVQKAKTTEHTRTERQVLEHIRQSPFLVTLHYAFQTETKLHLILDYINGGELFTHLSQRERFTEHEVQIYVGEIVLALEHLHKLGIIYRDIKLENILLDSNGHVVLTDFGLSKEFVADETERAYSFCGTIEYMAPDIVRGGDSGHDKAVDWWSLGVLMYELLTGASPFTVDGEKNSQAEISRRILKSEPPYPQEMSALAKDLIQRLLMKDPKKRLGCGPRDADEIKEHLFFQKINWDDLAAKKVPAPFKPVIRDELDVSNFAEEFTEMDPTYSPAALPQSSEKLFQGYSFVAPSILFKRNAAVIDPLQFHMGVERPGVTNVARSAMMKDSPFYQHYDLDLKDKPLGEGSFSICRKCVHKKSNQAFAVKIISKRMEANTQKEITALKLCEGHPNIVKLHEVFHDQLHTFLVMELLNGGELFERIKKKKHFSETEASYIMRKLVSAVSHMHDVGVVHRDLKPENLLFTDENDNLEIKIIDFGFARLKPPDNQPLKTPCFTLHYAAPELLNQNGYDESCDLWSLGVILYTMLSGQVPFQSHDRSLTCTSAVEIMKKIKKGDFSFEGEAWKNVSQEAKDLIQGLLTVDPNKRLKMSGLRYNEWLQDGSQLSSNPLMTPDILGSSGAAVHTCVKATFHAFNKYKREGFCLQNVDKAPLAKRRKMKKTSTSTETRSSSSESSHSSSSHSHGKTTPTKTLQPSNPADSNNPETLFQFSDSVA
UniProt Q8WXA3: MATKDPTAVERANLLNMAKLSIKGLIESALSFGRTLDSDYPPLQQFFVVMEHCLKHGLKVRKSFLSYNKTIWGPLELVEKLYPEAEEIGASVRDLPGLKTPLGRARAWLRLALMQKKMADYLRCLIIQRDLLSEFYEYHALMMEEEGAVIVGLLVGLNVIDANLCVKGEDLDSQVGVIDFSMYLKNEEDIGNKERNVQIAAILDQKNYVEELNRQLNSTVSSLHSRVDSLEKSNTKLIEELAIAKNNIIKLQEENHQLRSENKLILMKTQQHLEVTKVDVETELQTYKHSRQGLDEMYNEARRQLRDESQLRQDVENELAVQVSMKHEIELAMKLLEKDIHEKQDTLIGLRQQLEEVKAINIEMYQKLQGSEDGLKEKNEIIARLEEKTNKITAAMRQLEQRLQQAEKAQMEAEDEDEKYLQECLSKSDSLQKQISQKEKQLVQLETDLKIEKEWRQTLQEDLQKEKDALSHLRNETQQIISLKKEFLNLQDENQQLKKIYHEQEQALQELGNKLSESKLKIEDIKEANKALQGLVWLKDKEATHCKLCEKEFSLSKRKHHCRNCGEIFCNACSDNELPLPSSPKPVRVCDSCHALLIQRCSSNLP
UniProt P60903, whole entry, looked up: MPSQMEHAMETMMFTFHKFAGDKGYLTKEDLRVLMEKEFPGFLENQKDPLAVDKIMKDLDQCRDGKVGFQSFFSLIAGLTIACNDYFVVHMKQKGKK
UniProt Q9UBS0: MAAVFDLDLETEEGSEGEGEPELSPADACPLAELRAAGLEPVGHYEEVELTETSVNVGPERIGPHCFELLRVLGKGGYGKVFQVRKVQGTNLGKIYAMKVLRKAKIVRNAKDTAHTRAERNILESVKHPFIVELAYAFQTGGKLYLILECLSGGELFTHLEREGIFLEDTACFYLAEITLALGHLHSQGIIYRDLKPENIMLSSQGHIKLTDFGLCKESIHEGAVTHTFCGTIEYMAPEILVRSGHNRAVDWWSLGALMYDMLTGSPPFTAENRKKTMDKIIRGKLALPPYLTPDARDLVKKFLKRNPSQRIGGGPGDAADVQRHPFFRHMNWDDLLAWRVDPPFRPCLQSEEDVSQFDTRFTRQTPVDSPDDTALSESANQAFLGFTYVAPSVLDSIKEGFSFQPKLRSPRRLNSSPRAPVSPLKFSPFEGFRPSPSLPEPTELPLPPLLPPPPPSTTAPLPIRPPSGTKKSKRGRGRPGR
UniProt Q9Y3V2: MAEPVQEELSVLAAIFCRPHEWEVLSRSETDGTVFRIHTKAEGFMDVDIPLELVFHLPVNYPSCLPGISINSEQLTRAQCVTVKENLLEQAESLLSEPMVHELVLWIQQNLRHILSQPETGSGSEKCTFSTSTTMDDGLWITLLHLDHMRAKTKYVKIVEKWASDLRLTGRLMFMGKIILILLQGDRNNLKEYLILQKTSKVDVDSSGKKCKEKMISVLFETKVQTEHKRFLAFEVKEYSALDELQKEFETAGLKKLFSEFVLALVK
UniProt Q9NQC3: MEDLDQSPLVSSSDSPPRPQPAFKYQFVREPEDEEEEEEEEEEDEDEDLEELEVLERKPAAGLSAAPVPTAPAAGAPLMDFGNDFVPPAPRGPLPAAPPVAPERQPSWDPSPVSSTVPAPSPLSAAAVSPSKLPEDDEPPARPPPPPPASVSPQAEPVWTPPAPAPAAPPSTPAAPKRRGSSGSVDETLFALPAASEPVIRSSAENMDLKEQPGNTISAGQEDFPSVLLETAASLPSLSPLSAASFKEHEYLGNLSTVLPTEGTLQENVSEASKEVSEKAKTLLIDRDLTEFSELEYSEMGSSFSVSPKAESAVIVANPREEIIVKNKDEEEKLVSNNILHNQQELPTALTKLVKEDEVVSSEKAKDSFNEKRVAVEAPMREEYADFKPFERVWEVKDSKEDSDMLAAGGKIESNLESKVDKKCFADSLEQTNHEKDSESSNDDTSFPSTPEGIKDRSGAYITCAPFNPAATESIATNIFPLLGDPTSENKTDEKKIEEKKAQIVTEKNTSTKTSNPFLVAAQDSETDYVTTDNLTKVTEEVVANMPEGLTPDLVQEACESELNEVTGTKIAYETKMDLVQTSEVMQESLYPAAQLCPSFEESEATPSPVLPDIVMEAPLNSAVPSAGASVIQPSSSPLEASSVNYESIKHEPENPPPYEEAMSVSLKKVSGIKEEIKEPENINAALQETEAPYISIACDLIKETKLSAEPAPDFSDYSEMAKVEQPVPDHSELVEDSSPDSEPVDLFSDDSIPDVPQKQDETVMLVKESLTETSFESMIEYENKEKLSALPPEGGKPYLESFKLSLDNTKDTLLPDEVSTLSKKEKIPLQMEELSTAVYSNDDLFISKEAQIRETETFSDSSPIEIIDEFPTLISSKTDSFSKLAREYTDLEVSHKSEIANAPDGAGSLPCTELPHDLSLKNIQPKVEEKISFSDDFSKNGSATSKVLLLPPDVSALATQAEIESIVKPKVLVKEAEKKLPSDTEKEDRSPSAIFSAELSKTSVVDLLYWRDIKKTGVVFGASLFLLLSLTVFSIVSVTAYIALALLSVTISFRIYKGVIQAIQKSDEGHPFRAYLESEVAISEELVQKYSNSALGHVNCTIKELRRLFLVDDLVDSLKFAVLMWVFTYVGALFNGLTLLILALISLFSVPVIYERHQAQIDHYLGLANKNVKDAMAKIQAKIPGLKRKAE
UniProt Q96C34: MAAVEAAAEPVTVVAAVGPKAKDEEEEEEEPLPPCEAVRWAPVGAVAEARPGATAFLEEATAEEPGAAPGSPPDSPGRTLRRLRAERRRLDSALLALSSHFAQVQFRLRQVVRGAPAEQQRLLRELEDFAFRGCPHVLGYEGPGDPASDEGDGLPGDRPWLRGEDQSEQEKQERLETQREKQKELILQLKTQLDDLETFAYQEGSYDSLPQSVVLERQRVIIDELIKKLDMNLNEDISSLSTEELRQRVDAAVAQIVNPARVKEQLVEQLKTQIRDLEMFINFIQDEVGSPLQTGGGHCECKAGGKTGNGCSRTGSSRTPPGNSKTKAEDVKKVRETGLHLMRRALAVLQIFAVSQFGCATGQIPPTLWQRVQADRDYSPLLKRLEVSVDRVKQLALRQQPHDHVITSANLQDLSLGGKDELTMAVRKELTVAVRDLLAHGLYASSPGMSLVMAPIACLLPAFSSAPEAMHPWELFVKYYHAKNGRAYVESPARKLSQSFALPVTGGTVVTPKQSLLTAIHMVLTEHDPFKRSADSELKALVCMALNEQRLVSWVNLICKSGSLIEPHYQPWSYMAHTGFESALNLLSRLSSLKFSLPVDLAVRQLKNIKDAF
UniProt P19793: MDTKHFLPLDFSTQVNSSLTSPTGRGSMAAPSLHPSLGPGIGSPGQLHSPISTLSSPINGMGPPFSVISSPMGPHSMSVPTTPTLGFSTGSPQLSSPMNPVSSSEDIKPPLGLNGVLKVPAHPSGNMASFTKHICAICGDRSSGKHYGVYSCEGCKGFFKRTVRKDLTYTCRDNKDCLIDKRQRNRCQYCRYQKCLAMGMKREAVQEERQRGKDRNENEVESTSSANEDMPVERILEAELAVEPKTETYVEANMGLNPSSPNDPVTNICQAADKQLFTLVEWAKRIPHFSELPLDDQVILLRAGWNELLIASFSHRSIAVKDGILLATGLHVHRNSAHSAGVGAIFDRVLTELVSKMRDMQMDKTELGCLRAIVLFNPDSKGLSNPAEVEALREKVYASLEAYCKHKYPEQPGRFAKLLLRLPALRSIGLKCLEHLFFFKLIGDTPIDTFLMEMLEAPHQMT

How the values were obtained:
Assay in all cases: log2 fold change, soluble protein after heating vs DMSO (PISA); higher = thermal stabilisation; K562 lysate, 10 uM; active = over 0.2 and 3.5 SD of the protein, either way, in both replicates (recomputed)
[1] = compound: CS(=O)(=O)N1CCN(Cc2cc3nc(-c4cccc5[nH]ncc45)nc(N4CCOCC4)c3s2)CC1 [pictilisib]
In short: (§1)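 Log-two fold change in thermal stability relative to solvent controls is reported from duplicates. For each sample, crude K562 extract from dounce-homogenised pellets in PBS pH 7.4 with 1 mM MgCl2, at 1 mg/mL protein, was treated with 10 μM compound for 30 min. Aliquots heated for 3 min across 48°C-58°C were pooled, brought to 0.5% NP-40 at 4°C and cleared at 21,000xg for 90 min. The supernatant was quantified by TMTpro 16plex LC-MS/MS with channel sums equalised.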

[2] = compound: C[C@@H](Oc1cc(-c2cnn(C3CCNCC3)c2)cnc1N)c1c(Cl)ccc(F)c1Cl [crizotinib]
In short: as §1

[3] = compound: C[C@H](Nc1ncnc2nc[nH]c12)c1cc2cccc(Cl)c2c(=O)n1-c1ccccc1 [duvelisib]
In short: as §1

[4] = compound: Cc1cc(Nc2cc(N3CCN(C)CC3)nc(Sc3ccc(NC(=O)C4CC4)cc3)n2)n[nH]1 [tozasertib]
In short: as §1

[5] = compound: Cc1ccc(-n2nc(C(C)(C)C)cc2NC(=O)Nc2ccc(OCCN3CCOCC3)c3ccccc23)cc1 [doramapimod]
In short: as §1

[6] = compound: Cc1ccc(NC(=O)c2ccc(CN3CC[C@H](N(C)C)C3)c(C(F)(F)F)c2)cc1Nc1nccc(-c2cncnc2)n1 [bafetinib]
In short: as §1

[7] = compound: Cc1nc(Nc2ncc(C(=O)Nc3c(C)cccc3Cl)s2)cc(N2CCN(CCO)CC2)n1 [dasatinib]
In short: as §1

[8] = compound: Cn1cc(-c2ccc3c(c2)CCN3C(=O)Cc2cccc(C(F)(F)F)c2)c2c(N)ncnc21
In short: as §1

[9] = compound: Cn1cc(CNCC2CCN(c3ncc(C(=O)NO)cn3)CC2)c2ccccc21 [quisinostat]
In short: as §1

[10] = compound: NC(=O)Nc1cc(-c2cccc(F)c2)sc1C(=O)N[C@H]1CCCNC1
In short: as §1

[11] = compound: NC1(c2ccc(-c3nc4ccn5c(=O)[nH]nc5c4cc3-c3ccccc3)cc2)CCC1
In short: as §1

[12] = compound: Cc1cn(-c2cc(NC(=O)c3ccc(C)c(Nc4nccc(-c5cccnc5)n4)c3)cc(C(F)(F)F)c2)cn1 [nilotinib]
In short: as §1

[13] = compound: Cc1nc(Nc2n[nH]c3c2CN(C(=O)N[C@H](CN(C)C)c2ccccc2)C3(C)C)c2sccc2n1
In short: as §1

[14] = compound: Cc1ncc(-c2ccnc(Nc3ccc(S(C)(=O)=O)cc3)n2)n1C(C)C
In short: as §1

[15] = compound: Cn1cncc1[C@@](N)(c1ccc(Cl)cc1)c1ccc2c(c1)c(-c1cccc(Cl)c1)cc(=O)n2C [tipifarnib]
In short: as §1

[16] = compound: CS(=O)(=O)CCNCc1ccc(-c2ccc3ncnc(Nc4ccc(OCc5cccc(F)c5)c(Cl)c4)c3c2)o1 [lapatinib]
In short: as §1

[17] = compound: C[C@H](C1=CC=C(C=C1)C(=O)NC2=C3C=CNC3=NC=C2)N
In short: as §1

[18] = compound: Cc1cc(Nc2cc(CN3CCOCC3)c3nc(C)c(Cc4ccc(Cl)cc4F)n3n2)n[nH]1 [gandotinib]
In short: as §1

[19] = compound: Cc1cccc(CC(=O)N2CCc3c2ccc(-c2cn(C)c4ncnc(N)c24)c3F)n1
In short: as §1

[20] = compound: NC(=O)c1cnc(N[C@@H]2CCCC[C@@H]2N)nc1Nc1cccc(-n2nccn2)c1
In short: as §1

Target | log2 fold change [1] | log2 fold change [2] | log2 fold change [3] | log2 fold change [4] | log2 fold change [5] | log2 fold change [6] | log2 fold change [7] | log2 fold change [8] | log2 fold change [9] | log2 fold change [10] | log2 fold change [11] | log2 fold change [12] | log2 fold change [13] | log2 fold change [14] | log2 fold change [15] | log2 fold change [16] | log2 fold change [17] | log2 fold change [18] | log2 fold change [19] | log2 fold change [20]
RRBP1 isoform 3 (UniProt Q9P2E9) | inactive: 0.029 | inactive: -0.054 | inactive: 0.018 | inactive: 0.048 | inactive: 0.083 | inactive: -0.191 | inactive: -0.059 | inactive: -0.069 | inactive: 0.054 | inactive: 0.158 | inactive: 0.048 |  |  |  |  |  |  |  |  | 
RTEL1 isoform 2 (UniProt Q9NZ71) |  |  | inactive: -0.101 |  |  |  | inactive: 0.014 | inactive: 0.013 |  |  |  | inactive: 0.041 | inactive: -0.112 | inactive: -0.162 | inactive: -0.265 |  |  |  |  | 
RTL8C (UniProt A6ZKI3) |  | inactive: -0.003 | inactive: 0.177 | inactive: -0.007 | inactive: -0.107 |  | inactive: -0.067 | inactive: -0.06 | inactive: -0.01 | inactive: 0.061 | inactive: 0.076 | inactive: 0.01 | inactive: 0.018 | inactive: 0.042 | inactive: -0.015 |  |  |  |  | 
S100A6 (UniProt P06703) |  | inactive: 0.119 | inactive: 0 | inactive: -0.038 | inactive: -0.017 |  | active: 0.774 | inactive: -0.063 | inactive: 0.001 | inactive: -0.078 | inactive: 0.026 |  |  |  |  | inactive: 0.069 | inactive: 0.088 | inactive: 0.207 | inactive: -0.119 | inactive: -0.063
RPUSD4 (UniProt Q96CM3) | inactive: -0.091 | inactive: -0.007 | inactive: -0.073 |  | inactive: 0.02 | inactive: -0.096 | inactive: 0.046 | inactive: 0 | inactive: -0.006 | inactive: 0.058 | inactive: -0.021 | inactive: -0.026 | inactive: -0.02 | inactive: 0.001 | inactive: -0.045 |  | inactive: -0.061 | inactive: 0.023 | inactive: 0.083 | 
RSL24D1 (UniProt Q9UHA3) |  | inactive: 0.168 | inactive: 0.009 | inactive: -0.027 | inactive: -0.098 |  | inactive: 0.097 | inactive: -0.089 | inactive: 0.096 | inactive: 0.032 | inactive: -0.08 | inactive: -0.038 | inactive: 0.012 | inactive: -0.094 | inactive: 0.071 | inactive: -0.059 | inactive: 0.132 | inactive: -0.028 | inactive: 0.023 | inactive: -0.006
RTN4R (UniProt Q9BZR6) |  |  |  |  |  |  |  |  |  |  | inactive: 0.105 |  |  |  |  |  |  |  |  | 
RSRP1 (UniProt Q9BUV0) |  |  | inactive: -0.07 |  |  |  | inactive: 0.047 | inactive: 0.102 |  |  |  |  |  |  |  |  |  |  |  | 
RPS6KA5 (UniProt O75582) |  | inactive: 0.028 | inactive: -0.011 | inactive: 0.106 | inactive: -0.043 |  | inactive: -0.006 | inactive: 0.065 | inactive: 0.062 | inactive: 0.073 | inactive: -0.127 | inactive: -0.037 | inactive: 0.004 | inactive: -0.079 | inactive: 0.042 | inactive: -0.024 | inactive: 0.13 | inactive: -0.23 | inactive: -0.032 | inactive: -0.086
RUFY2 isoform 1 (UniProt Q8WXA3) | active: -0.533 | inactive: -0.015 |  | inactive: 0.131 | inactive: -0.136 | inactive: 0.177 |  |  | inactive: 0.047 | inactive: 0.007 |  | inactive: -0.006 | inactive: 0.02 | inactive: 0.119 | inactive: 0.177 |  | inactive: 0.116 | inactive: 0.072 | inactive: -0.099 | 
RPS19 (UniProt M0R2L9) |  | inactive: 0.091 | inactive: -0.055 | inactive: 0.064 | inactive: -0.138 |  | inactive: -0.077 | inactive: -0.928 | inactive: 0.01 | inactive: -0.07 | inactive: -0.438 |  |  |  |  |  |  |  |  | 
RPSA (UniProt F8WD59) |  |  | inactive: -0.11 |  |  |  | inactive: 0.029 | inactive: 0.167 |  |  |  | inactive: -0.109 | inactive: 0.011 | inactive: -0.032 | inactive: 0.142 |  | inactive: -0.241 | inactive: 0.201 | inactive: -0.057 | 
RPUSD3 (UniProt Q6P087) |  | inactive: -0.142 | inactive: 0.006 | inactive: 0.041 | inactive: -0.055 |  | inactive: 0.041 | inactive: 0.008 | inactive: -0.123 | inactive: -0.037 | inactive: 0.077 | inactive: 0.009 | inactive: 0.025 | inactive: -0.033 | inactive: -0.028 |  | inactive: 0.009 | inactive: -0.197 | inactive: -0.022 | 
S100A10 (UniProt P60903) | inactive: 0.312 | inactive: 0.068 | inactive: -0.067 |  | inactive: 0.047 | inactive: -0.102 | inactive: 0.896 | inactive: -0.178 | inactive: -0.312 | inactive: 0.159 | inactive: 0.175 | inactive: 0.051 | inactive: 0.038 | inactive: -0.019 | inactive: -0.027 |  |  |  |  | 
RPS6KB2 (UniProt Q9UBS0) |  | inactive: -0.171 | inactive: 0.055 | inactive: 0.1 | inactive: 0.182 |  | inactive: -0.046 | inactive: 0.082 | inactive: -0.08 | inactive: 0.003 | inactive: -0.019 | inactive: -0.019 | inactive: 0.035 | inactive: 0.003 | inactive: -0.05 | inactive: 0.05 | inactive: 0.236 | inactive: -0.19 | inactive: -0.011 | inactive: -0.032
RWDD3 (UniProt Q9Y3V2) |  | inactive: 0.259 | inactive: 0.027 |  | inactive: -0.007 |  | inactive: -0.067 | inactive: 0.159 | inactive: -0.006 | inactive: -0.018 |  |  |  |  |  |  | inactive: 0.142 | inactive: -0.417 | inactive: -0.322 | 
RTN4, A0A0U1RQR6 |  |  |  |  |  |  |  |  |  |  |  |  |  |  |  |  | inactive: -0.236 | inactive: 0.379 | inactive: 0.519 | 
RTN4 isoform 3 (UniProt Q9NQC3) |  |  |  | inactive: -0.461 |  |  |  |  |  |  |  |  |  |  |  |  |  |  |  | 
RTL8A (UniProt Q9BWD3) |  | inactive: -0.142 |  | inactive: -0.072 | inactive: -0.02 |  |  |  | inactive: 0.022 | inactive: 0.042 |  |  |  |  |  |  |  |  |  | 
RUNDC1 (UniProt Q96C34) | inactive: -0.469 | inactive: -0.044 | inactive: -0.008 |  | inactive: 0.043 | inactive: 0.264 | inactive: -0.022 | inactive: -0.068 | inactive: -0.049 | inactive: 0.029 | inactive: -0.014 |  |  |  |  |  | inactive: -0.061 | inactive: -0.011 | inactive: 0.211 | 
RPUSD1 (UniProt Q9UJJ7) |  |  | inactive: 0.053 | inactive: -0.045 |  |  | inactive: -0.186 | inactive: -0.097 |  |  |  |  |  |  |  |  | inactive: 0.077 | inactive: 0.031 | inactive: 0.121 | 
RWDD2A (UniProt Q9UIY3) | inactive: 0.134 | inactive: -0.029 | inactive: -0.004 | inactive: -0.029 | inactive: 0.027 | inactive: -0.034 | inactive: -0.038 | inactive: 0.071 | inactive: 0.009 | inactive: 0.017 | inactive: 0.093 |  |  |  |  |  | inactive: -0.09 | inactive: -0.078 | inactive: 0.017 | 
RPS3 (UniProt E9PJN9) |  | inactive: -0.021 |  | inactive: -0.052 | inactive: 0.073 |  |  |  | inactive: -0.026 | inactive: 0 |  |  |  |  |  |  |  |  |  | 
RXRA (UniProt P19793) |  | inactive: -0.062 | inactive: 0 |  | inactive: 0.019 |  | inactive: -0.112 | inactive: -0.024 | inactive: -0.028 | inactive: 0.027 | inactive: -0.014 | inactive: 0.164 | inactive: -0.053 | inactive: 0.119 | inactive: 0.011 | inactive: -0.045 | inactive: -0.041 | inactive: -0.047 | inactive: 0.126 | inactive: 0.024

An excerpt of these results, as comma-separated lines.
Target,log2 fold change [1],log2 fold change [2],log2 fold change [3],log2 fold change [4],log2 fold change [5],log2 fold change [6],log2 fold change [7],log2 fold change [8],log2 fold change [9],log2 fold change [10],log2 fold change [11],log2 fold change [12],log2 fold change [13],log2 fold change [14],log2 fold change [15],log2 fold change [16],log2 fold change [17],log2 fold change [18],log2 fold change [19],log2 fold change [20]
RPS19 (UniProt M0R2L9),,inactive: 0.091,inactive: -0.055,inactive: 0.064,inactive: -0.138,,inactive: -0.077,inactive: -0.928,inactive: 0.01,inactive: -0.07,inactive: -0.438,,,,,,,,,
RPSA (UniProt F8WD59),,,inactive: -0.11,,,,inactive: 0.029,inactive: 0.167,,,,inactive: -0.109,inactive: 0.011,inactive: -0.032,inactive: 0.142,,inactive: -0.241,inactive: 0.201,inactive: -0.057,
